Results from article PMC6440985, “Heterogeneous drug tissue binding in brain regions of rats, Alzheimer’s patients and controls: impact on translational drug development” (Scientific Reports, 2019).

What was measured:
in vitro = details: human, brain homogenate, pH 7.4, fu,brain,ROI Mean
[1] = Regional brain tissue binding by equilibrium dialysis, rat brain homogenate

Structure (SMILES): CN1C(=O)CN=C(c2ccccc2)c2cc(Cl)ccc21 [Diazepam, diazepam]
- fraction unbound (in vitro): 0.058
- between region comparison of fu,brain,ROI ([1]; healthy Sprague-Dawley rats, FrCx, PrCx, BG, CRB, HIP, WB): higher fu,brain,ROI
- coefficient of variation in the inter-day assessment of fu,brain ([1]; identical whole rat brain homogenate, three experimental days): 10.3%
